This passage reports binding results from paper PMC8913942.

Sequences of proteins named here, by UniProt entry; tags and fusion partners are left off. Residues count along the entry.
UniProt Q01705, residues 19-2531: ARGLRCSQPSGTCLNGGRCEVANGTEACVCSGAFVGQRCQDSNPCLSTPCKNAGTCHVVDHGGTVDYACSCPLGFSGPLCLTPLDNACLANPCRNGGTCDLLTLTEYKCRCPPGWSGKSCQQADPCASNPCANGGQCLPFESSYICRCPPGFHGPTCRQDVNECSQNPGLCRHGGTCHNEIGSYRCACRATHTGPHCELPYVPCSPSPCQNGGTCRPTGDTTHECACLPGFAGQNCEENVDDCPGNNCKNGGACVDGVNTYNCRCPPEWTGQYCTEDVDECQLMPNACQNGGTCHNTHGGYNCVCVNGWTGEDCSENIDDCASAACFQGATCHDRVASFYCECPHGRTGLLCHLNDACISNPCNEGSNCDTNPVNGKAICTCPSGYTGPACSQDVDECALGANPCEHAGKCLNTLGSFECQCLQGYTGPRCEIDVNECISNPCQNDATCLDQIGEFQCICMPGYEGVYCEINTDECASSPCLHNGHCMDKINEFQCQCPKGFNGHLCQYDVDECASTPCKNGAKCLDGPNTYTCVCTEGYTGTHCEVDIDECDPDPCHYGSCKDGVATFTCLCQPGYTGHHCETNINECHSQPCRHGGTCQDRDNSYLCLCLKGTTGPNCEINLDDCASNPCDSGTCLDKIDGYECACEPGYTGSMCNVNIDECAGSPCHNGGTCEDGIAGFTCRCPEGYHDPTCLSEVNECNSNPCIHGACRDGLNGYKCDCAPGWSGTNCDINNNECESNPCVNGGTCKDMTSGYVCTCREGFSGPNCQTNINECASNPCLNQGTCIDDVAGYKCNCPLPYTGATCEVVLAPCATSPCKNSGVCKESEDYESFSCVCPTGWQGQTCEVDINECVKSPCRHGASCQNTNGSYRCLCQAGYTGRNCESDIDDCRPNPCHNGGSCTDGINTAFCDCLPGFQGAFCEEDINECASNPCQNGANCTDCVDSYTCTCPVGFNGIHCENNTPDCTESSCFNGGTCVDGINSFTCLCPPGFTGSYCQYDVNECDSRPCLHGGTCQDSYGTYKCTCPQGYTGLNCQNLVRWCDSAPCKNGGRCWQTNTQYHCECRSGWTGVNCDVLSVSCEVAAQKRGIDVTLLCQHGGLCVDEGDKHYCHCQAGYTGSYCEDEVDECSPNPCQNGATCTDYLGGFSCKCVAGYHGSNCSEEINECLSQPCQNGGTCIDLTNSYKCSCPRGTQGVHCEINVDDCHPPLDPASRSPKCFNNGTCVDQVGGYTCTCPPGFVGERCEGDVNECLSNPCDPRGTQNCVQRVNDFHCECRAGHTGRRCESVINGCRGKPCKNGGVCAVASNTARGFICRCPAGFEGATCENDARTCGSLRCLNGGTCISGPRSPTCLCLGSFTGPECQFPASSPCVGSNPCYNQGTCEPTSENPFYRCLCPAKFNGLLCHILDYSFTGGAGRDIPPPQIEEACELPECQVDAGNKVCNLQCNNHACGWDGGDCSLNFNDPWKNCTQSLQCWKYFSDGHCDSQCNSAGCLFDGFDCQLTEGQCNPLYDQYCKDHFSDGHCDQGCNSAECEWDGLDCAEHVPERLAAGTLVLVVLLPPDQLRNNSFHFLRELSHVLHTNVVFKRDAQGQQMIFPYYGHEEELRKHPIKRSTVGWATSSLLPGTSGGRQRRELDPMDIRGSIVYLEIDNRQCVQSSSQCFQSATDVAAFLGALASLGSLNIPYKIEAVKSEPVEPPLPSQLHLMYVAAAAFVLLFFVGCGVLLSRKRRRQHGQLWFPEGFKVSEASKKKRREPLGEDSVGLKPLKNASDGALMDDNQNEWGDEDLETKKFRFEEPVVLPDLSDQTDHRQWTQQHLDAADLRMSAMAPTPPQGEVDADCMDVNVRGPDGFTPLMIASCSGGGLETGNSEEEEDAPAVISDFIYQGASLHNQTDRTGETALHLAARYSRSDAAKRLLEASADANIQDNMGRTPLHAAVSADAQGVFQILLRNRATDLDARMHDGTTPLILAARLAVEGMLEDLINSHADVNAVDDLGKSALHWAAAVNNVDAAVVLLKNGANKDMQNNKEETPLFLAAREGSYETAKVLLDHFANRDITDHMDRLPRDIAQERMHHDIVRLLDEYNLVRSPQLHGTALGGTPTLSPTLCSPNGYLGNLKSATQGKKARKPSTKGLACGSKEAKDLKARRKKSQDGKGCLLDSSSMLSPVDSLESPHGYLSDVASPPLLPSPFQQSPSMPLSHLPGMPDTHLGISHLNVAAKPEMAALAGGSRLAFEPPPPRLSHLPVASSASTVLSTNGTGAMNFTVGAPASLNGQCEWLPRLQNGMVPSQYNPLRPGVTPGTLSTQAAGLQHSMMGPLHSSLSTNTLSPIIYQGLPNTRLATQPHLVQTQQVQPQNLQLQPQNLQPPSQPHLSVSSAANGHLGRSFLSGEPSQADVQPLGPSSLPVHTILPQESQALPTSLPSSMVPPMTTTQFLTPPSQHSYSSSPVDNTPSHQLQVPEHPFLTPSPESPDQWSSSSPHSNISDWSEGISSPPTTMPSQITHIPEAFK
UniProt Q04207: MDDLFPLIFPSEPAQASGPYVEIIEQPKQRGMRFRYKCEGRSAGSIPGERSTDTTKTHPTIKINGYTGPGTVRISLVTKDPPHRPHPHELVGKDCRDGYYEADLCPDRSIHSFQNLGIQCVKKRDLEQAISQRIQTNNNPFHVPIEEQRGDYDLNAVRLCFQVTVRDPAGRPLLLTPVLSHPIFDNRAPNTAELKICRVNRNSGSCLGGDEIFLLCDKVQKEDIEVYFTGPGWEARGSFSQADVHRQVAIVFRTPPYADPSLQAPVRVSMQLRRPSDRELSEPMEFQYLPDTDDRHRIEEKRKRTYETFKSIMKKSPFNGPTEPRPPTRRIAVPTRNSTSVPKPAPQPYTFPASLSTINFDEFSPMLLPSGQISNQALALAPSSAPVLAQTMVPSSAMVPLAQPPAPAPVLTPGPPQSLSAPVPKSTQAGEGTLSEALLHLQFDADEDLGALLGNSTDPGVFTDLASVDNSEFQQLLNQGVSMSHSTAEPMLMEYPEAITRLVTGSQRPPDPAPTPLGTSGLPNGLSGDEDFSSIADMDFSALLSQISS

Experiment [1] deals with Notch1 (mouse (endogenous in RAW264.7)) (UniProt Q01705). The experiment in a line: co-IP; reciprocal co-IP from RIPA lysate (200 μg total protein) with 1 μg specific antibody overnight at 4°C, protein A+G agarose beads 3 hours at 4°C, five washes with lysis buffer, immunoblot; cells also with Notch1 knockdown or NICD overexpression.
The target in experiment [2] is NF-κB p65 (mouse (endogenous in RAW264.7)) (UniProt Q04207). The description is as above.

Results are given in words; binding and its absence hold for the method and conditions named. In cells and extracts the contact can be indirect. Some entries that bind do so weakly or less than the wild type.

As for NF-κB p65 (from UniProt Q04207 1-549), the binding entry in experiment [1] was “binds”.
Consider “Notch1 (from UniProt Q01705 19-2531) (receptor)”, for which the binding result in experiment [2] was “binds”.
